Whole data set: some 33,000 sequences, median “E-score (-0.5 to 0.5)” near -0.0014, cut for the highest 2% near 0.25. This is one part of the list.
Target: T1, Cad1 (UniProt P24813)
T1 sequence: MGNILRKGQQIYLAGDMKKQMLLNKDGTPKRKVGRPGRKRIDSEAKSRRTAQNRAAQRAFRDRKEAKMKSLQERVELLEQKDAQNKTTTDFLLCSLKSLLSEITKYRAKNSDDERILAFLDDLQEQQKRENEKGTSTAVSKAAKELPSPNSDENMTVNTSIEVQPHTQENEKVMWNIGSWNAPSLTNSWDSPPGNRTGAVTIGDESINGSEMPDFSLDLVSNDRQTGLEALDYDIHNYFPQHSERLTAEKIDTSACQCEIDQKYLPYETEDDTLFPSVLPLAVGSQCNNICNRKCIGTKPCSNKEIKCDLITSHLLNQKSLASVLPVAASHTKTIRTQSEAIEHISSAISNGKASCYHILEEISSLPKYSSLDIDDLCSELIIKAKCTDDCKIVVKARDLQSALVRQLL
Test: PBM E-score (8-mer binding enrichment) (E-score (-0.5 to 0.5)); higher = stronger / more preferred TF binding
Conditions: protein concentration: 100 nM; construct: GST-full length
Description: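 Universal 'all 10-mer' protein binding microarrays (Agilent AMADID 015681) probed with GST-tagged S. cerevisiae TFs (full-length or DBD) made by in vitro transcription/translation (PURExpress), about 100-200 nM. Bound TF was detected with fluorescent anti-GST. Each ungapped 8-mer (which stands for itself and its reverse complement) is scored by the PBM enrichment score (E-score), a modified Wilcoxon-Mann-Whitney statistic from -0.5 to +0.5, computed with the Universal PBM Analysis Suite. Scale: above 0.35 generally sequence-specific binding.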

| Sequence | PBM E-score |
| --- | --- |
| CCCTAGAC | -0.157 |
| AGTCCCTG | -0.212 |
| GACTTCGC | 0.0624 |
| CTGTTTGA | -0.00915 |
| CGCTGTTC | 0.00447 |
| TGGCTTAA | 0.156 |
| AAGGTTCA | -0.0378 |
| TCGCTAGA | 0.0334 |
| TAACTCTA | -0.0689 |
| GCGCTAGA | 0.162 |
| CAGAACAC | -0.0563 |
| TTGGCCAA | -0.204 |
| AGGCCGAC | -0.0602 |
| AAGAGTAT | -0.159 |
| AGCACAGC | 0.125 |
| CTGTCCGA | 0.189 |
| CACAAGAC | -0.105 |
| AACAGGCT | -0.104 |
| CATATCCA | -0.105 |
| CAAATCCC | -0.171 |
| AAGCCTGG | -0.114 |
| CCTGTGGC | -0.193 |
| ATGGATCA | -0.0508 |
| ACACCAGG | -0.166 |
| AAATCAAC | 0.00702 |

| Sequence | PBM E-score |
| --- | --- |
| CTCGCTCC | -0.0617 |
| AGGTATTC | 0.0115 |
| ACGCGGGC | 0.0965 |
| AATACGCA | 0.0688 |
| AGCGAGCA | 0.0824 |
| GTCGCCTA | -0.11 |
| CGAGCCAA | 0.00822 |
| CCACGGAC | -0.144 |
| AGCGGGTG | -0.0881 |
| GATTACAC | 0.156 |
| GCAAGGGA | -0.135 |
| ATATTATC | 0.096 |
| ACCTTCAC | -0.0345 |
| CTAGGCCC | -0.265 |
| AGTCGCTA | -0.0236 |
| CATAGCCA | 0.0256 |
| GACCGTAC | -0.287 |
| CACTGAAA | 0.0823 |
| ATCCTATA | 0.065 |
| ATGTCCAC | 0.0105 |
| GTGGGACA | -0.0497 |
| CAAGTCCC | -0.291 |
| ACGTCACC | 0.0158 |
| CGATAATC | -0.016 |
| AGTATATC | 0.0175 |

| Sequence | PBM E-score |
| --- | --- |
| CGGTTTTC | 0.139 |
| ATCGACAT | 0.212 |
| ATGTAGGA | -0.151 |
| CGTAACTA | -0.001 |
| AAAAGAGC | -0.0189 |
| CGTTCGGC | -0.00541 |
| CTACCATC | -0.119 |
| AGAGCTTA | 0.0343 |
| ATCTCATA | 0.0481 |
| CCCGGAAC | -0.0598 |
| AACTGTAA | 0.243 |
| GAGGCCGC | -0.154 |
| GCTGCACC | -0.124 |
| CGCATTAC | 0.0529 |
| ACCTCATC | -0.156 |
| CGGGCTTA | 0.0305 |
| CGGACCCG | -0.117 |
| CCCGTGTA | -0.175 |
| CAGAGCGG | -0.151 |
| AGTTGTTG | -0.106 |
| CCTGCCTA | -0.0584 |
| ATATACTA | 0.259 |
| AAGAAACG | 0.0597 |
| TCAGTCGA | 0.151 |
| CCTGAGAA | -0.0053 |

| Sequence | PBM E-score |
| --- | --- |
| GACATGTC | -0.0393 |
| GTTATGCA | 0.0393 |
| AAAAAACA | 0.156 |
| ACCCGGAC | -0.179 |
| ATTATCTA | 0.239 |
| GGATCCGA | -0.00022 |
| GGCTACCC | -0.276 |
| ATCATACC | -0.022 |
| GAAGGCGA | -0.0753 |
| CTGCAACA | 0.0811 |
| CCTGTGTA | 0.0937 |
| ATCTATCA | 0.144 |
| AAGATATA | 0.0978 |
| AGAGATAC | 0.165 |
| AGGGTGTC | -0.0231 |
| CAGGAGAG | -0.257 |
| CCAAGAGG | -0.252 |
| AGAGCAAA | -0.141 |
| GTCTGCTA | 0.218 |
| CCCCCTCG | -0.377 |
| CAAGACCA | -0.0255 |
| ATAGAATA | 0.191 |
| AAGGAGGC | -0.3 |
| ACTTCTGC | 0.0398 |
| CATGACGC | -0.0248 |

| Sequence | PBM E-score |
| --- | --- |
| ATTATGGG | -0.0198 |
| CGTCGGCC | -0.0542 |
| GAGCCTTA | -0.0105 |
| GACTTGGC | -0.305 |
| ATGACAAG | 0.127 |
| GTCATTCA | 0.0207 |
| GCAAAACA | 0.00562 |
| GTACGTAC | 0.0441 |
| CGCGGGGA | 0.027 |
| ACCCGTAA | -0.103 |
| CCCTCGAC | -0.0126 |
| AATACTAT | -0.0768 |
| GAGACCTC | -0.179 |
| CTCGGCGC | 0.069 |
| CACGGTGA | 0.155 |
| CGGCCATA | -0.0142 |
| ACGCAATG | -0.0109 |
| AGGTCTTA | -0.0298 |
| ATGTAAAG | 0.084 |
| CAGCATAG | 0.126 |
| CAGAGTCG | -0.0666 |
| CGCCATAG | -0.00884 |
| ATAGCACC | -0.0406 |
| CTCAGAAA | 0.0689 |
| ACTTGTTG | -0.216 |

| Sequence | PBM E-score |
| --- | --- |
| CTTACCCC | -0.253 |
| ACCAATAT | 0.306 |
| ATGTACCG | -0.0631 |
| AAGGAGTG | -0.0916 |
| CAGACTAA | -0.0613 |
| CGGCTCTA | 0.0485 |
| AGTACGCA | -0.129 |
| AAGAGACG | 0.127 |
| CGCCAAGC | -0.256 |
| AACAGCAA | 0.106 |
| ACCTCGCA | -0.0868 |
| AACCGTGA | 0.0747 |
| ACACACGC | 0.0891 |
| CACGGTAA | -0.0753 |
| CATTACGG | -0.144 |
| GGTCTAGA | -0.081 |
| GCGCATAC | 0.0238 |
| CCTTTTCG | -0.12 |
| ACGTCTAA | -0.0112 |
| ATCTAAAG | 0.0132 |
| CTTAGGCC | 0.0557 |
| AGTTGCCG | -0.0113 |
| CCGTTCAG | 0.00401 |
| CTCCCCAA | -0.148 |
| AATTATTA | 0.249 |

Some values from the results shown.
Under PBM E-score, AGCGGGTG is listed with -0.0881
Under PBM E-score, AGTCCCTG is listed with -0.212
Under PBM E-score, GTCATTCA is listed with 0.0207
Under PBM E-score, AGTACGCA is listed with -0.129
Under PBM E-score, CGTCGGCC is listed with -0.0542

Next results follow:

| Sequence | PBM E-score |
| --- | --- |
| CTCCTCAA | -0.199 |
| CGCTAGCC | -0.207 |
| GTTCCCAA | 0.0533 |
| CCGATATA | -0.00547 |
| GCGCAACC | 0.0308 |
| CGCAACAC | 0.131 |
| CCGTCCAG | -0.0511 |
| GCTAAGCC | -0.109 |
| GTGCCATA | -0.215 |
| GATGATGC | -0.0747 |
| TAACGCAA | -0.00978 |
| CCGCGTAG | 0.0464 |
| GGATACTA | -0.0698 |
| GAACGTTA | -0.0273 |
| ACACAGGC | 0.0337 |
| GATCCCCC | -0.366 |
| GGAACCAA | 0.164 |
| AAGAGTGG | -0.21 |
| CGACTCCA | -0.0472 |
| GGTCGATA | -0.125 |
| GAGATGAC | -0.00686 |
| CCCCATCG | 0.0338 |

A second format for some results above:
Sequence,PBM E-score
AAGAGACG,0.127
CGCCAAGC,-0.256
AACAGCAA,0.106
ACCTCGCA,-0.0868
AACCGTGA,0.0747
ACACACGC,0.0891
CACGGTAA,-0.0753
CATTACGG,-0.144
GGTCTAGA,-0.081
GCGCATAC,0.0238
CCTTTTCG,-0.12
ACGTCTAA,-0.0112
ATCTAAAG,0.0132
CTTAGGCC,0.0557
AGTTGCCG,-0.0113
CCGTTCAG,0.00401
CTCCCCAA,-0.148
AATTATTA,0.249
CTCCTCAA,-0.199
CGCTAGCC,-0.207
GTTCCCAA,0.0533
CCGATATA,-0.00547
GCGCAACC,0.0308
CGCAACAC,0.131
CCGTCCAG,-0.0511
GCTAAGCC,-0.109
GTGCCATA,-0.215
GATGATGC,-0.0747
TAACGCAA,-0.00978
CCGCGTAG,0.0464
GGATACTA,-0.0698
GAACGTTA,-0.0273
ACACAGGC,0.0337
GATCCCCC,-0.366
GGAACCAA,0.164
AAGAGTGG,-0.21
CGACTCCA,-0.0472
GGTCGATA,-0.125

Source: the supplement of paper PMC3334620
